Measurements: patent publication US20140004243A1, “SALTY TASTE ENHANCER” (AJINOMOTO CO., INC., priority 2011, published 2014)
For at least one compound, name, drawing or mass did not settle the structure.

Biological target: T1, Human ENaC δ, β and γ subunit (Homo sapiens, UniProt P51168+P51170+P51172)
T1 construct: expressed in transfected cells; host or cells: Xenopus laevis (African clawed frog) oocytes injected with cRNA
T1 sequence (P51172 1-802): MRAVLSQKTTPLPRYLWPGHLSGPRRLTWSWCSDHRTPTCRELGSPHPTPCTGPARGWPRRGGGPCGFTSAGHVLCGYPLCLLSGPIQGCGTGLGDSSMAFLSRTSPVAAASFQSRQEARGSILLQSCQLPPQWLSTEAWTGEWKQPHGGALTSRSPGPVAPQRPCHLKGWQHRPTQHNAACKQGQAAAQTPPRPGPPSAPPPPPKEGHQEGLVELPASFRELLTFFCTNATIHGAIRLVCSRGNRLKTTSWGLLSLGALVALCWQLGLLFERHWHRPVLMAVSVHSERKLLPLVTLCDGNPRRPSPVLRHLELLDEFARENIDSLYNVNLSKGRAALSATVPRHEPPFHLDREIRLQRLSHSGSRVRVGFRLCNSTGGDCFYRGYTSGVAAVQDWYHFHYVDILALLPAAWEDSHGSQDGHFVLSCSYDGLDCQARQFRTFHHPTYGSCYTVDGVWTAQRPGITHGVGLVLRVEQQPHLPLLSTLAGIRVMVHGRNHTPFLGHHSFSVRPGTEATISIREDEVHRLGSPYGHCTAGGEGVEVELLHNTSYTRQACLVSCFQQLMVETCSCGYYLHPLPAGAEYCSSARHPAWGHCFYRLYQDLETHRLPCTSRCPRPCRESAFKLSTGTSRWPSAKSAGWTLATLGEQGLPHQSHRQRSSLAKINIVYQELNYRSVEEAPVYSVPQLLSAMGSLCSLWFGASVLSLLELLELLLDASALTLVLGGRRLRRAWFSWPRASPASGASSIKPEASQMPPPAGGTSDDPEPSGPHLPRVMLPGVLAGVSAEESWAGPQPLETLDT
T1 sequence (P51168 1-640): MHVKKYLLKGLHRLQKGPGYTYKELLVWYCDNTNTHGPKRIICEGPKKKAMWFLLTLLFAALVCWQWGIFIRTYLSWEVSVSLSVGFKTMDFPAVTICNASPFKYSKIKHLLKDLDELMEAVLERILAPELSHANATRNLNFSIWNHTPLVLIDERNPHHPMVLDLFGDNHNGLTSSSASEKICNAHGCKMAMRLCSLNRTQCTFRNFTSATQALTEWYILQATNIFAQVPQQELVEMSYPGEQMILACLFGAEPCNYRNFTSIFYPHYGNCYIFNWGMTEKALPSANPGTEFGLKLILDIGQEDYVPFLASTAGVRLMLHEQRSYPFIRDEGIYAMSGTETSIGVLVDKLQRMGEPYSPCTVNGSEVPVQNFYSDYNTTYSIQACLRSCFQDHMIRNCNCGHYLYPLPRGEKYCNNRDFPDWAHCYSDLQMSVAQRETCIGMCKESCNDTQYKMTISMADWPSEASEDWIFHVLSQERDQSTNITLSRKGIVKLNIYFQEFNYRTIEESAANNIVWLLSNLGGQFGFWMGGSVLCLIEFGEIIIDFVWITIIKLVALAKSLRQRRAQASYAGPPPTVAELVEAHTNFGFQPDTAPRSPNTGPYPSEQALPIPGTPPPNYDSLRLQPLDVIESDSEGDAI
T1 sequence (P51170 1-649): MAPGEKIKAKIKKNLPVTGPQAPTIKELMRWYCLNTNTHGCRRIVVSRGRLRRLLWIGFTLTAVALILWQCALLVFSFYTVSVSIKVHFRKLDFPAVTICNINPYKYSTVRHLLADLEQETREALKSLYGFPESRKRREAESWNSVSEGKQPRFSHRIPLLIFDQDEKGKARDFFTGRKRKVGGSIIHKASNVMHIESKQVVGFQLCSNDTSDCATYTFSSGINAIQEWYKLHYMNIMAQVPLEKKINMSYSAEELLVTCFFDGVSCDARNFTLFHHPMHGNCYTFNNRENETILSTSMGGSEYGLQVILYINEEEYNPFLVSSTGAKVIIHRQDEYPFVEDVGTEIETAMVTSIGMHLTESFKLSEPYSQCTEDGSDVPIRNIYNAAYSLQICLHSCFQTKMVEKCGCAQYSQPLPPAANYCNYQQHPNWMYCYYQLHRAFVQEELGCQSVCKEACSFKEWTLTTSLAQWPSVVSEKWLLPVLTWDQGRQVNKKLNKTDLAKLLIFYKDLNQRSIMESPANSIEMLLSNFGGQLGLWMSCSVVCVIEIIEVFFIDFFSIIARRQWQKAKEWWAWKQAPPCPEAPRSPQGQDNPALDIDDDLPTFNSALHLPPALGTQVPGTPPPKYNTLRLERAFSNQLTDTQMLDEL
Test: Measurement of ENaC activation potency (MED) in ENaC-expressing oocyte, Two Electrode Voltage Clamp
Assay type: cell-based
Conditions: minimum effective dose at which current started to increase; ENaC-expressing African clawed frog oocyte; smaller MED = higher ENaC activation potency
Protocol: ENaC activation current value, namely, the inward current in ENaC-expressing oocyte was measured as follows.
According to the method described in Motonao Nakamura, Takao Shimizu: Experiment of African clawed frog oocyte, Experimental Medicine Vol. 11, No. 3, 224-232 (1993), oocyte was collected from African clawed frog, […], and the current value was measured by a Two Electrode Voltage Clamp technique. In the present invention, ND96 (96 mM NaCl, 2 mM KCl, 1 mM MgCl2, 5 mM Hepes, 1.8 mM CaCl2, pH 7.6) was used instead of MBS buffer in the above-mentioned document. Injector NANOLITER 2000 manufactured by World Precision Instruments was used for microinjection, OpusXpress 6000A manufactured by Molecular Devices was used for current value measurement by a Two Electrode Voltage Clamp technique, and Clampfit 10.2 software manufactured by Molecular Devices was used for data analysis.
Human ENaC δ, β and γ subunit genes shown by SEQ ID NOs: 1, 2 and 3, respectively, in the Sequence Listing were each cloned into a plasmid vector, and used as a template DNA for cRNA synthesis. cRNA was synthesized using MEGAscript kit manufactured by Ambion and according to the method of the manual of the manufacturer.
A mixture of the same amount of ENaC […] cRNA (0.4 to 0.8 μg/μL), and β and γ subunits cRNA (0.4 μg/μL) was injected into the oocyte of African clawed frog at […] per oocyte, and the oocyte was cultured for 16 hr-72 hr. Thereafter, the oocyte was set on a measuring apparatus OpusXpress 6000A, the electrodes were inserted into the oocyte, the voltage was clamped at a level lower by −30 mV than the resting membrane potential by a Two Electrode Voltage Clamp technique, and the current value was measured.
To measure the ENaC activation potency, oocyte was stimulated with each test compound, and the minimum effective dose (hereinafter to be abbreviated as MED) of the compound at the time point when the electric current started to increase was measured. In this case, whichever smaller value of the minimum effective dose of the stimulation compound that increased the current value by not less than 10%, and the minimum effective concentration of the compound that increased, by not less than 25%, the electric current increase value due to the stimulation by 5 μM capsazepine (CAS NO.: 138977-28-3), as compared to the current value before addition of the compound and without stimulation, was taken as MED. A smaller MED means higher ENaC activation potency.
Each test compound was directly dissolved in ND96, or first dissolved in dimethyl sulfoxide (DMSO) to 100 mM, and then prepared by diluting the solution with ND96 to a concentration used for the evaluation. The concentration of the test compound in ND96 was prepared to various concentrations within the range of 0.1 nM to 300 μm.
ND96 as a perfusion fluid was flown at a rate of 0.5 mL/min through the measuring apparatus OpusXpress 6000A on which ENaC-expressing oocyte was set, the perfusion fluid was temporarily stopped every 3 minutes to add a test compound solution (0.25 mL) dissolved in ND96 at a rate of 0.5 mL/min. In this way, the test compound was contacted with ENaC-expressing oocyte, and whether ENaC is activated by the compound was examined by measuring the current value. After addition of the test compound, feeding of the perfusion fluid was resumed to wash away the compound to be ready for the next addition of the compound. […]

SMILES	MED
C[C@@H](NC(=S)N/N=C/c1ccccc1C(=O)O)c1ccccc1 [Example 97, 2-{(E)-[4-((R)-1-phenylethyl)thiosemicarbazono]methyl}benzoic acid]	1 µM
CC(CNC(=S)NCc1ccccc1)c1ccccc1 (centres unmarked) [Example 58]	3.3 µM
NCC(=O)Nc1cccc(CNC(=S)NCCc2ccccc2)c1 [Example 83, 1-{3-[(2-aminoacetyl)amino]benzyl}-3-(2-phenylethyl)thiourea]	1 µM
CN(CCc1ccccc1O)C(=S)Nc1ccccc1C(=O)O [Example 123, 2-{3-methyl-3-[2-(2-hydroxyphenyl)ethyl]thioureido}benzoic acid]	0.06 µM
S=C(NCCc1ccccc1)NCC1CCCCC1 [Example 19]	3 µM
